According to publication PMC11482519:
These are yes or no findings as the source states them, for the method shown. Binding seen in cells or lysates may run through a third protein. Some results given as binding are weak or reduced against the parent protein; the word gives no strength. One block for each substance: values may come before it.

Protein sequences, listed by entry. Tags and fused reporters are not part of them. Lines headed by an entry give the natural chain unless they say otherwise; changes in a name come on top. Residues count along the entry.
UniProt Q93009: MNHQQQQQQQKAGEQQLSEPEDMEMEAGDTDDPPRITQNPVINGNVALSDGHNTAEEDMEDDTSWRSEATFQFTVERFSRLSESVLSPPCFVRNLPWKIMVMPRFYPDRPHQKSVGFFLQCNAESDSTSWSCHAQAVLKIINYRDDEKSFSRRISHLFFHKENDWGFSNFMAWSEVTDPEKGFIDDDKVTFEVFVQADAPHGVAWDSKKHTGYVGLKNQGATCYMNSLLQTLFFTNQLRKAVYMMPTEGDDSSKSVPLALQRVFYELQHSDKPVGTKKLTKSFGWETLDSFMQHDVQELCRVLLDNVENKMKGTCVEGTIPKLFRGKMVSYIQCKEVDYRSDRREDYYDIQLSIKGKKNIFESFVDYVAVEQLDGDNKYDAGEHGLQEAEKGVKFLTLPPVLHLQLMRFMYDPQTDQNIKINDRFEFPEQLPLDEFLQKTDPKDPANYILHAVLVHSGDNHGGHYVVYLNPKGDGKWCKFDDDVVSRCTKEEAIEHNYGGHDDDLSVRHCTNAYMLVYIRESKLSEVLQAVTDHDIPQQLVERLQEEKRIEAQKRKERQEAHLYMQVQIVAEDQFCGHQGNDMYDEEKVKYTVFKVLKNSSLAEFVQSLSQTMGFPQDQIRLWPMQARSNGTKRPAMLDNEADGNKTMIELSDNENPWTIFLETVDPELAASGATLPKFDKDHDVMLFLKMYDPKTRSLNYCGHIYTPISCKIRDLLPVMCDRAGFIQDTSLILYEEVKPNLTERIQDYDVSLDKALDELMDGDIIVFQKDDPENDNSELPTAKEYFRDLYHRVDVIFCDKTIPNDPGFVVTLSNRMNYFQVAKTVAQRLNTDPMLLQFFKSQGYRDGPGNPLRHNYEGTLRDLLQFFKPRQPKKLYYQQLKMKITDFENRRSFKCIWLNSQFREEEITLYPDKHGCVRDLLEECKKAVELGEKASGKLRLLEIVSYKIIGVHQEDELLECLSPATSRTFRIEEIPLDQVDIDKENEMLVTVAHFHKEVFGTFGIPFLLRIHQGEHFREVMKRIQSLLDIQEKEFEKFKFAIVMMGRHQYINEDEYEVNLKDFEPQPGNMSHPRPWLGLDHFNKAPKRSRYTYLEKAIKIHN
GST-USP7 (1–206 aa): residues 1-206 of Q93009
UniProt Q99814: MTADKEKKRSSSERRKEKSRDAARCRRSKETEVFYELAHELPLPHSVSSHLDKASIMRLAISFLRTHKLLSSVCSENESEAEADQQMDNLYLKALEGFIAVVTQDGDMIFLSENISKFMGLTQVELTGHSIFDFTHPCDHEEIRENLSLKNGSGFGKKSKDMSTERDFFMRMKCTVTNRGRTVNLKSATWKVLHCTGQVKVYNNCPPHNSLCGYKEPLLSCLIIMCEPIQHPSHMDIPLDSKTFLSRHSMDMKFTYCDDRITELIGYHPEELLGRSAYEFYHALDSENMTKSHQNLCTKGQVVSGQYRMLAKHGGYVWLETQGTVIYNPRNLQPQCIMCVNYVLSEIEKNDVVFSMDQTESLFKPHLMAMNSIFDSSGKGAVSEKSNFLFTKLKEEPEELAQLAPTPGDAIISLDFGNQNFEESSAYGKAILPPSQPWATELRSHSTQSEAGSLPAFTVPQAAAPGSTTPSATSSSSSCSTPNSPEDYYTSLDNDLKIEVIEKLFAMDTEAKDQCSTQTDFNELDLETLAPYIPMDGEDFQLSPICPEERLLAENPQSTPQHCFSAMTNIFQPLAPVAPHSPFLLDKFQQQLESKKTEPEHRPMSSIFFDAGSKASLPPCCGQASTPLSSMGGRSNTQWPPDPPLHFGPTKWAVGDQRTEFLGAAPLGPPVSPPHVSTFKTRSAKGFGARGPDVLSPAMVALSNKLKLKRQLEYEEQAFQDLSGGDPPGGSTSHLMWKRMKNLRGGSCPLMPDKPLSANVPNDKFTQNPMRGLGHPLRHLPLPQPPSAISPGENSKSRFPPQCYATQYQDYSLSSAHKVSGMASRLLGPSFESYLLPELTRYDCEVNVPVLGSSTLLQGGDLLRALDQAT

Columns and labels:
Flag-USP7 (1-206 aa) = Flag-USP7 (1-206 aa) (UniProt Q93009); test: co-IP; 293T cells co-transfected with Flag- and HA-tagged constructs; cell lysates immunoprecipitated with anti-Flag or anti-HA antibodies, immunoblot
[1] = target: endogenous USP7 (human (endogenous in OS-RC-2 and 786-O)) (UniProt Q93009); test: co-IP; lysates of OS-RC-2 or 786-O cells immunoprecipitated with antibodies against USP7; HIF2α detected by immunoblot
[2] = target: HA-USP7 (Ubiquitin-Specific Peptidase 7) (UniProt Q93009); test: co-IP; 293T cells co-transfected with Flag- and HA-tagged constructs; cell lysates immunoprecipitated with anti-Flag or anti-HA antibodies, immunoblot
Flag-HIF2α (1-174 aa) = Flag-HIF2α (1-174 aa) (UniProt Q99814); test: as above
[3] = target: Flag-HIF2α (hypoxia-inducible factor 2α) (UniProt Q99814); test: as above
GST-USP7 (1–206 aa) = GST-USP7 (1–206 aa) (UniProt Q93009); test: pull-down; GST pull-down with recombinant GST-USP7 (1–206 aa) and lysates of 293T cells expressing Flag-HIF2α (1-174 aa); immunoblot; only the target purified

- binding (Flag-USP7 (1-206 aa)): binds
Substance: HA-HIF2α (from UniProt Q99814 1-870)

- binding [1]: binds
Substance: endogenous HIF2α (from UniProt Q99814 1-870)

- binding [2]: binds
Substance: Flag-HIF2α (hypoxia-inducible factor 2α) (from UniProt Q99814 1-870)

- binding (Flag-HIF2α (1-174 aa)): binds
- binding [3]: binds
Substance: HA-USP7 (Ubiquitin-Specific Peptidase 7) (from UniProt Q93009 1-1102) (enzyme)

- binding (GST-USP7 (1–206 aa)): binds
Substance: Flag-HIF2α (1-174 aa) (from UniProt Q99814 1-174) (domain or fragment)
